“And” between values parts separate entries of the source, which are not always exact repeats. Identical values can stand only once. Counter-ions that a name gives are not always drawn. Some of the results follow. This data set is noisy: repeats of one test often differ as much as different tests do.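 HEK293T cells were given each compound shortly before transfection with a reporter in which red mCherry is followed by the SARS-CoV-2 frameshift element and then GFP in the −1 frame, so GFP appears only after frameshifting.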

This test deals with SARS-CoV-2 -1 PRF reporter mCherry-FSE-GFP(-1). The test is described as follows: percent effect, decrease of GFP/mCherry ratio (-1 PRF reporter) relative to controls; higher = stronger frameshift inhibition. The settings on record: 10 µM; 24 h; HEK293T.
Regarding `Cc1cc(C)cc(OCC2CNC(=O)O2)c1` (stereo not given) [metaxalone], the percent effect is 0.663%.
As for `CC(C)C[C@H](NC(=O)[C@H](Cc1ccccc1)NC(=O)c1cnccn1)B(O)O` [Bortezomib], the figure is -7.12%.
For the compound `OCCOc1ccc(/C(=C(/CCCl)c2ccccc2)c2ccccc2)cc1` [ospemifene], the percent effect is -3.16%.
Consider `CCC(C)C(CC)C(N)=O` (stereo not given) [valnoctamide], for which the percent effect was -11%.
As for `C[C@]12CCC(=O)C=C1CC[C@@H]1[C@@H]2C(=O)C[C@@]2(C)[C@H]1CC[C@]2(O)C(=O)CO` [cortisone], the percent effect is -3.02%.
For `CO/N=C(\C(=O)N[C@@H]1C(=O)N2C(C(=O)O)=C(CSC(=O)c3ccco3)CS[C@H]12)c1csc(N)n1`, the percent effect was -4.23%.
As for `CCC1=C(C)CN(C(=O)NCCc2ccc(S(=O)(=O)NC(=O)N[C@H]3CC[C@H](C)CC3)cc2)C1=O`, the percent effect is -5.81%.
As for `Cc1ccc2nc(N)[nH]c(=O)c2c1Sc1ccncc1` [nolatrexed], the figure is 1.49%.
As to `O=C1CC[C@@H](C(=O)O)N1` [pidolic acid], the percent effect was -3.48%.
As for `C#C[C@]1(O)CC[C@H]2[C@@H]3CCC4=C(CCC(=O)C4)[C@H]3CC[C@@]21C`, the figure is -0.859%; as for `CCCCOc1ccc(OCCCN2CCOCC2)cc1` [pramocaine], -2.13%; as for `NC12CC3CC(CC(C3)C1)C2` [Amantadine·HCl], -3.31%.
Regarding `Nc1ccc(S(=O)(=O)Nc2cnc3ccccc3n2)cc1`, the percent effect was -4.79%.
For `NC(=O)NCCN1CCN(c2cccc(C(F)(F)F)c2)CC1` [fluprazine], the percent effect is -12.5%.
Regarding `CC(C)(Oc1ccc(Cl)cc1)C(=O)O` [Clofibric acid], the percent effect is -5.41%.
Take `O=[N+]([O-])c1nccn1CC(O)CN1CCCCC1` (stereo not given) [pimonidazole]: the percent effect stood at 3.31%.
For `CCN1CCC[C@H]1CNC(=O)c1c(O)c(Cl)cc(Cl)c1OC` [S(-)-Raclopride], the percent effect is -3.17%.
With `Clc1ccc(C(Cn2ccnc2)OCc2ccsc2Cl)c(Cl)c1` (stereo not given) [tioconazole] the figure was -1.42%; with `CC(=O)CC(c1ccccc1)c1c(O)c2ccccc2oc1=O` (stereo not given) [warfarin], -3.5%.
`C#C[C@]1(OC(C)=O)CC[C@H]2[C@@H]3CCC4=CC(=O)CC[C@@H]4[C@H]3CC[C@@]21C`: the percent effect is -11.2%.
With `O=[N+]([O-])c1ccc(/C=N/O)o1` [nifuroxime] the figure was -3.33%; with `COc1ccc2c(O[C@@H]3C[C@H]4C(=O)N[C@]5(C(=O)NS(=O)(=O)C6(C)CC6)C[C@H]5/C=C\CCCCC[C@H](NC(=O)c5ccn(C)n5)C(=O)N4C3)cc(OC(C)C)nc2c1C`, -0.139%; with `NCC[C@H](O)C(=O)N[C@@H]1C[C@H](N)[C@@H](O[C@H]2O[C@H](CN)[C@@H](O)[C@H](O)[C@H]2O)[C@H](O)[C@H]1O[C@H]1O[C@H](CO)[C@@H](O)[C@H](N)[C@H]1O` [amikacin], -0.988% and -1.45%.
Turning to `CC1CC(=O)NN=C1c1ccc(NN=C(C#N)C#N)cc1` (stereo not given) [simendan], the percent effect was -8.08%.
As for `C=C(C)CNc1ccc(C(C)C(=O)O)cc1` (stereo not given) [alminoprofen], the percent effect is -1.09%.
Consider `N[C@H](Cc1cc(I)c(Oc2cc(I)c(O)c(I)c2)c(I)c1)C(=O)O` [Choloxin], for which the percent effect was -3.11%.
Regarding `COc1cccc(CCc2ccccc2OCC(CN(C)C)OC(=O)CCC(=O)O)c1` (stereo not given) [sarpogrelate], the percent effect is -3.25%.
On to `O=C(O)c1cc(-c2ccccc2)nc2ccccc12` [cinchophen], for which the percent effect was -0.926%.
Take `N=C(N)N/N=C/c1c(Cl)cccc1Cl` [guanabenz]: the percent effect was -6.78%.
For `CCOC(=O)C1=C(C)NC(C)=C(C(=O)OCC)C1c1ccccc1/C=C/C(=O)OC(C)(C)C` [Lacidipine], the percent effect was -4.65%.
`O=C(O)C(=O)O.[NH-][C@@H]1CCCC[C@H]1[NH-].[Pt+2]` [Oxaliplatin]: the percent effect was -2.85%.
Consider `C[C@H]1C[C@H]2[C@@H]3CCC4=CC(=O)C=C[C@]4(C)[C@H]3C(=O)C[C@]2(C)[C@@]1(O)C(=O)CO` [meprednisone], for which the percent effect is -0.479%.
Take `N=C(N)NCCC[C@H](N)C(=O)O` [arginine]: the percent effect is -1.55% and -1.83%.
With `C[N+](C)(C)CCOP(=O)(O)OC[C@H](O)CO` [choline alfoscerate] the figure was -2.48%; with `CO[C@H]1O[C@H](COS(=O)(=O)O)[C@@H](O[C@@H]2O[C@@H](C(=O)O)[C@@H](O[C@H]3O[C@H](COS(=O)(=O)O)[C@@H](O[C@@H]4O[C@H](C(=O)O)[C@@H](O[C@H]5O[C@H](COS(=O)(=O)O)[C@@H](O)[C@H](O)[C@H]5NS(=O)(=O)O)[C@H](O)[C@H]4O)[C@H](OS(=O)(=O)O)[C@H]3NS(=O)(=O)O)[C@H](O)[C@H]2OS(=O)(=O)O)[C@H](O)[C@H]1NS(=O)(=O)O` [Fondaparinux sodium], -1.35%.
